Data taken from article PMC10004634 (PLOS ONE, 2023).

System: TMD8 xenograft tumor
Assay: Gene expression microarray analysis of TMD8 xenograft tumors
Settings: geometric mean

CC#CC(=O)N1CC[C@@H](n2c(=O)n(-c3ccc(Oc4ccccc4)cc3)c3c(N)ncnc32)C1 [Tirabrutinib]
tirabrutinib 3 (mean) expression value ALOX5 (3 mg/kg): 14465.9
tirabrutinib 3 (mean) expression value CAMK2B (3 mg/kg): 502.5
tirabrutinib 3 (mean) expression value ELL2 (3 mg/kg): 1080.8
tirabrutinib 3 (mean) expression value EMP2 (3 mg/kg): 299.5
tirabrutinib 3 (mean) expression value MYBPH (3 mg/kg): 561.7
tirabrutinib 10 (mean) expression value ATF3 (10 mg/kg): 1953.7
tirabrutinib 10 (mean) expression value DKFZp686O1327 (10 mg/kg): 134.0
tirabrutinib 10 (mean) expression value NFATC1 (10 mg/kg): 619.0
tirabrutinib 10 (mean) expression value TNFRSF17 (10 mg/kg): 64.9
tirabrutinib 10 (mean) expression value ZNF831 (10 mg/kg): 43.6
